# The supplement of paper PMC12819154, “High-throughput peptide-centric local stability assay extends protein–ligand identification to membrane proteins, tissues and bacteria” (Nature Structural & Molecular Biology, 2025)
# By UniProt entry, the sequences of proteins in these tests, tags left out. Where a name states a change or a piece, a line headed by the entry shows the natural chain unless it says otherwise.
# UniProt P32321: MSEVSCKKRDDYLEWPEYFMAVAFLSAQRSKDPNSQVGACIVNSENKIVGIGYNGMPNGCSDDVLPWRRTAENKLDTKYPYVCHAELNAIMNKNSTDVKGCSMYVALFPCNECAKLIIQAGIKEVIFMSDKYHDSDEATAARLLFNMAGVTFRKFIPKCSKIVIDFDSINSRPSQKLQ
# UniProt P35612: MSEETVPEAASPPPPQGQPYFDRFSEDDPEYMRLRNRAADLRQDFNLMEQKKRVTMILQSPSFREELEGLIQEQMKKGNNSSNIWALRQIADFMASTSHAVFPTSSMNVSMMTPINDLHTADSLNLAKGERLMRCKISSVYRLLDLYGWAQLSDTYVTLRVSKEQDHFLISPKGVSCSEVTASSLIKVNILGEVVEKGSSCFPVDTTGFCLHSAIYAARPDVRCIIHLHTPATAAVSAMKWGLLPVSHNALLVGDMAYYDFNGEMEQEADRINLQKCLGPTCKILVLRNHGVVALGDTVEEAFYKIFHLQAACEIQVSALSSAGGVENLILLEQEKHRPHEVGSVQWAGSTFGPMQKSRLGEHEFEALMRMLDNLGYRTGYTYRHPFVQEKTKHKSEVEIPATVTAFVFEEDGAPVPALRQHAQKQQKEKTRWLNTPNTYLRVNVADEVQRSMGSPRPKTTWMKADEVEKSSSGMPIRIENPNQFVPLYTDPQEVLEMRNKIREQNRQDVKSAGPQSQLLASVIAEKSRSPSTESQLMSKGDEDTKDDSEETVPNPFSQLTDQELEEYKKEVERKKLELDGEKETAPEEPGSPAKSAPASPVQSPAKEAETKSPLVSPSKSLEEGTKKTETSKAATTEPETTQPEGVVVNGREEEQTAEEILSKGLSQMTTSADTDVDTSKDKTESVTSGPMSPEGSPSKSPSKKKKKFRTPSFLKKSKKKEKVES
# UniProt P36543, whole entry: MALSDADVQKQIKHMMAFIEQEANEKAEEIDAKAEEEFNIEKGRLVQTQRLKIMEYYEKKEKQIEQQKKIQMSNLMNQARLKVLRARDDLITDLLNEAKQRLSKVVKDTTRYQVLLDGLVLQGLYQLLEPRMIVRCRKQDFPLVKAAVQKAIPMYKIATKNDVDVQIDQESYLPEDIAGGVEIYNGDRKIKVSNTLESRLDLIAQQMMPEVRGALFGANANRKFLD
# UniProt P35626: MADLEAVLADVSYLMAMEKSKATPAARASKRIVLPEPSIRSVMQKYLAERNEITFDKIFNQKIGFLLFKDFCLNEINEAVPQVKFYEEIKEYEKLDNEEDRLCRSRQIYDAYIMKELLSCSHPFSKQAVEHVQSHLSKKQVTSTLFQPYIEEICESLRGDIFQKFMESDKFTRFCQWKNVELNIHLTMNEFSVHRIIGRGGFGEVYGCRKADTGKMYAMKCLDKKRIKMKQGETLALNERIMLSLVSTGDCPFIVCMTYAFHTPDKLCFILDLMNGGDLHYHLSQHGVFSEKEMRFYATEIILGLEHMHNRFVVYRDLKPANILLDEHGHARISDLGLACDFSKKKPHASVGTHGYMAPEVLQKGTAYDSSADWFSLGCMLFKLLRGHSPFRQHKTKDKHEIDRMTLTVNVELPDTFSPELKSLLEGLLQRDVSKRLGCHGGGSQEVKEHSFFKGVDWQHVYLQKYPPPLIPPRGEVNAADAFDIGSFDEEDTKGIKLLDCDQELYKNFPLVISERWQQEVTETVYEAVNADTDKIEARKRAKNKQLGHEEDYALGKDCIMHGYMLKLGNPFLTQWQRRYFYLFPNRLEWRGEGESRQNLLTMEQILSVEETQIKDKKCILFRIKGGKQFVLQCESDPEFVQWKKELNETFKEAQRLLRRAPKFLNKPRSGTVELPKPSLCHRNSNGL
# UniProt P42765: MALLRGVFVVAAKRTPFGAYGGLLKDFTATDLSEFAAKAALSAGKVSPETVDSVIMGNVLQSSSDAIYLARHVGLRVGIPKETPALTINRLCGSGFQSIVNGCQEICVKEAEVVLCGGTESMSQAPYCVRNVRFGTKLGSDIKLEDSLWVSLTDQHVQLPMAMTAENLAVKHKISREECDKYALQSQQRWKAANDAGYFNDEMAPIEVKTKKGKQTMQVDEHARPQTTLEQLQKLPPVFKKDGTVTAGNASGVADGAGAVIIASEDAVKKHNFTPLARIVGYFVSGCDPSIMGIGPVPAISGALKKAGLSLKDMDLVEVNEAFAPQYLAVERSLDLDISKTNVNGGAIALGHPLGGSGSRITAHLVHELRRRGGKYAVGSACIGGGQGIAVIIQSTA
# UniProt P41229: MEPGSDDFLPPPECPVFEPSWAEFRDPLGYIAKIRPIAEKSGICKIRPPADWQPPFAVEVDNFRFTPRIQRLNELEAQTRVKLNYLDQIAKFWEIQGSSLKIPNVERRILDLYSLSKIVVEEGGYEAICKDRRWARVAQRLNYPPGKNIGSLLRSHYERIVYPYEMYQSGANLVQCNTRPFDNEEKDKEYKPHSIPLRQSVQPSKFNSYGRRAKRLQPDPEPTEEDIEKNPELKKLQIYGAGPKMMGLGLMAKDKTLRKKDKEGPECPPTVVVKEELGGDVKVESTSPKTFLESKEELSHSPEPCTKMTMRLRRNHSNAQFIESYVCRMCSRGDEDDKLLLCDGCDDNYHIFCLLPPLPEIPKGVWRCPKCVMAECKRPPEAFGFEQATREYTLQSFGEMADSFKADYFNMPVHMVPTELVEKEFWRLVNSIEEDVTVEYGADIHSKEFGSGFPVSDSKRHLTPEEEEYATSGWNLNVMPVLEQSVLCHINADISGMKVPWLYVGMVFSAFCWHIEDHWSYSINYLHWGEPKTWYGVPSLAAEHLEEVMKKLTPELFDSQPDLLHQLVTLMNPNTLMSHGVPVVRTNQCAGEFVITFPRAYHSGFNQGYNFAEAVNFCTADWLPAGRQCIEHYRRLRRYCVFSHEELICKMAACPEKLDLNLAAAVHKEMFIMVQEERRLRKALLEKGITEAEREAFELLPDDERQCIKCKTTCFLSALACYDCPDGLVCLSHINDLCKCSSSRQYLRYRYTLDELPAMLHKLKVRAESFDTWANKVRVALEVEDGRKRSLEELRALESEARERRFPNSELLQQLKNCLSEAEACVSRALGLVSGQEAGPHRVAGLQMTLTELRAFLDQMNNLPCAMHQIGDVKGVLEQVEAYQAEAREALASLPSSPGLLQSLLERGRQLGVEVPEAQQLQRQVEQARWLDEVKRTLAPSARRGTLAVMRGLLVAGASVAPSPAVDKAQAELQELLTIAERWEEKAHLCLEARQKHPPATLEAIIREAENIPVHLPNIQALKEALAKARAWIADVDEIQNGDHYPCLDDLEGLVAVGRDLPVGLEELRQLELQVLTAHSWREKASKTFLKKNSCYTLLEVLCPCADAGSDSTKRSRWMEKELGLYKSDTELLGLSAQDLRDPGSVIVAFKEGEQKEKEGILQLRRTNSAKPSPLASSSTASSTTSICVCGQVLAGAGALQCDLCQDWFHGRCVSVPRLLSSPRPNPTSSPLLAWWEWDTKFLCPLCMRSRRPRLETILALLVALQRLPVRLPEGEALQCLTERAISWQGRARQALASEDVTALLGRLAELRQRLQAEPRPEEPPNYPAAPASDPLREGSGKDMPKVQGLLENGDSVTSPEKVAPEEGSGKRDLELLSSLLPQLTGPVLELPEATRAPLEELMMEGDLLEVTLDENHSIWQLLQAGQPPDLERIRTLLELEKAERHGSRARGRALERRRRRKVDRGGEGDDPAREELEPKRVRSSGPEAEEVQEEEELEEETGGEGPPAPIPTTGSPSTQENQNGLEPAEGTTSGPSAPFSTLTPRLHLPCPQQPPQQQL
# UniProt P31146: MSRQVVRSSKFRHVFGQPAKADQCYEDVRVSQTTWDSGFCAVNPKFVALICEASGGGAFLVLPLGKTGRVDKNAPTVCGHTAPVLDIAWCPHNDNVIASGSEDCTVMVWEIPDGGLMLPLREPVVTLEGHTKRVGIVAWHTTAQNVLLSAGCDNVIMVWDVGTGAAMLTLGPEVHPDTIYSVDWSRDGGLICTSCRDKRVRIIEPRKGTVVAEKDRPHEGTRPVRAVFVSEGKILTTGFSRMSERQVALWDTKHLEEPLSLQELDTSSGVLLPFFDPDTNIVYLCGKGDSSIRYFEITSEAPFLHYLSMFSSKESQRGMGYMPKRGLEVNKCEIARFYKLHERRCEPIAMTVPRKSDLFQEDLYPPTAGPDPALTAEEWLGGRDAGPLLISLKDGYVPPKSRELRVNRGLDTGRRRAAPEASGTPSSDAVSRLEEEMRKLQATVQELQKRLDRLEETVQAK
# UniProt P37837: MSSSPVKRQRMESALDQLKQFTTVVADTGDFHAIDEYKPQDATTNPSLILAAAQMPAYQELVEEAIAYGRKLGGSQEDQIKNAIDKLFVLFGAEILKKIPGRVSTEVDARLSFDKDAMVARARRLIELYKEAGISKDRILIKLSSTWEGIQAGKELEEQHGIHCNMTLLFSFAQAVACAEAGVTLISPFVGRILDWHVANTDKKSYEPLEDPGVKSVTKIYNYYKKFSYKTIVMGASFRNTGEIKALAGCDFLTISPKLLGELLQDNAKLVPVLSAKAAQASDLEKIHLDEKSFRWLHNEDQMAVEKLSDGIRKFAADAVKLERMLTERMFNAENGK
# UniProt P31949: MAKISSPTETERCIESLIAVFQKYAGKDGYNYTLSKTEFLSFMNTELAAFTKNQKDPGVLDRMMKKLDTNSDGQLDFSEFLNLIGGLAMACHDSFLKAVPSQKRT
# UniProt P32929, whole entry: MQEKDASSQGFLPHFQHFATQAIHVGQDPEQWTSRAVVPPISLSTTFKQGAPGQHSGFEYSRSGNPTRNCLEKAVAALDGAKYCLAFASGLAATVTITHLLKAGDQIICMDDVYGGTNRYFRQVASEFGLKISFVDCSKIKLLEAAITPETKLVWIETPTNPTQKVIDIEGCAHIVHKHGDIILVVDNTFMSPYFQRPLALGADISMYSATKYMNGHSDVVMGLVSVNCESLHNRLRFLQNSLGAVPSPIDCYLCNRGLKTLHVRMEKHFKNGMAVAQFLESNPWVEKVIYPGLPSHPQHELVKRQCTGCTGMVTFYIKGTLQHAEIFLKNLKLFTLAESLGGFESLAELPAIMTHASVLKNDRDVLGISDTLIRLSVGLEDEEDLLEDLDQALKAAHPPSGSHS
# UniProt P39687: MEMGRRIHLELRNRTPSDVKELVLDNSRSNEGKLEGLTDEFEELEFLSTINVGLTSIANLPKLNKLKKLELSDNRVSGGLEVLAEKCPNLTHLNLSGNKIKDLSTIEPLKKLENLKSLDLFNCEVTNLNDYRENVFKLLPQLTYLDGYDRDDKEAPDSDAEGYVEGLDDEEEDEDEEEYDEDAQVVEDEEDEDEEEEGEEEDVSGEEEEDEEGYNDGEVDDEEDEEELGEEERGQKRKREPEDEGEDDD
# UniProt P41227: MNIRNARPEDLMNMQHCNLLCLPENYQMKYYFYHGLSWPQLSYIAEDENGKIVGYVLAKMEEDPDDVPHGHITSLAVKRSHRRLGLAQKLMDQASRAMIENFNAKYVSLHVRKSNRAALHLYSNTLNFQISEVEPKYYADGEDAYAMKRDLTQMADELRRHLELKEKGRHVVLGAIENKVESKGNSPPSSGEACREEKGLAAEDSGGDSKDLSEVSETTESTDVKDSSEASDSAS
# UniProt P37108: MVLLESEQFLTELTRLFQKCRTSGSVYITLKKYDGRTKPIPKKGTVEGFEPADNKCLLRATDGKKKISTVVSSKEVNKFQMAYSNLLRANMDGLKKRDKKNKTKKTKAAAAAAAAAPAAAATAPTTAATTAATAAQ
# UniProt P35232: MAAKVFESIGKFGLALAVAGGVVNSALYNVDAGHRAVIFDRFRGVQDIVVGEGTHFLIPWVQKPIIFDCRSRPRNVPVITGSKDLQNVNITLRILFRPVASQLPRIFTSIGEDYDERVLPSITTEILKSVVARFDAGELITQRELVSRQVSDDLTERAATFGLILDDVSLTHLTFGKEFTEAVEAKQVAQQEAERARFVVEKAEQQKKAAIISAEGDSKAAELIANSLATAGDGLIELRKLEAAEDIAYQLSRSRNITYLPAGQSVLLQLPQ
# UniProt P33240: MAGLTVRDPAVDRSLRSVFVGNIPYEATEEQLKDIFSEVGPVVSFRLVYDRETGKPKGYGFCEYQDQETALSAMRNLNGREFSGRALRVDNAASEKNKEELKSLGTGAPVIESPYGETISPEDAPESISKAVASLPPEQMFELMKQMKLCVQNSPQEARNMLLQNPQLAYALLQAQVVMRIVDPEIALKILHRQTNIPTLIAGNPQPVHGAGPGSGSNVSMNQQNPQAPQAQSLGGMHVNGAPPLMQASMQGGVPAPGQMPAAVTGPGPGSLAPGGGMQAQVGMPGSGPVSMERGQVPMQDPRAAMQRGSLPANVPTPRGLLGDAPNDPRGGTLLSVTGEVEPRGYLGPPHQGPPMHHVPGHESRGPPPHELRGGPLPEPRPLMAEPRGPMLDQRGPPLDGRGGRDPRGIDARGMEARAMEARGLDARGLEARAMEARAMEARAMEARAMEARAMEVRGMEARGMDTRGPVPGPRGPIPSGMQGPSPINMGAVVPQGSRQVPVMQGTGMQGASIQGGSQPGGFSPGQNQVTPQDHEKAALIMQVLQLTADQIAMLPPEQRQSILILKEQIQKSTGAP
# The other results are listed elsewhere or left out. Most entries show no effect beyond the scatter of the controls.
# Compound: CN[C@@H]1C[C@H]2O[C@@](C)([C@@H]1OC)n1c3ccccc3c3c4c(c5c6ccccc6n2c5c31)C(=O)NC4 [staurosporine]
# Test: log2 fold change of tryptic peptide abundance, ligand vs vehicle (limited proteolysis) (log2 ratio); higher = more trypsin-susceptible (destabilized)
# Conditions: ligand concentration: 20 uM; sample: K562 cleared lysate; digestion: 4 min, 22 C (HT-PELSA RT4min, Orbitrap Astral)
row,Target,log2 fold change
1,"DCTD (peptide sequence: IVIDFDSINSRPSQK, peptide start residue: 162) (UniProt P32321)",-0.0773
2,"ARL2 (peptide sequence: GLLTILKK, peptide start residue: 2) (UniProt P36404)",0.193
3,"ADD2 (peptide sequence: SRSPSTESQLMSK, peptide start residue: 528) (UniProt P35612)",-0.51
4,"ATP6V1E1 (peptide sequence: VSNTLESR, peptide start residue: 192) (UniProt P36543)",-0.157
5,"UniProt P35626 (peptide sequence: IVLPEPSIR, peptide start residue: 32)",0.72
6,"UniProt P42356 (peptide sequence: ITNVSAIIKPYPK, peptide start residue: 1741)",-0.416
7,"MTOR (peptide sequence: HCADHFLNSEHKEIR, peptide start residue: 605) (UniProt P42345)",-0.306
8,"ACAA2 (peptide sequence: TNVNGGAIALGHPLGGSGSR, peptide start residue: 341) (UniProt P42765)",-0.289
9,"UniProt P41229 (peptide sequence: ARQALASEDVTALLGR, peptide start residue: 1292)",0.328
10,"PSMC2 (peptide sequence: IATEKDFLEAVNK, peptide start residue: 403) (UniProt P35998)",0.312
11,"MYH11 (peptide sequence: NTDQASMPDNTAAQK, peptide start residue: 359) (UniProt P35749)",-0.206
12,"CORO1A (peptide sequence: RLDRLEETVQAK, peptide start residue: 450) (UniProt P31146)",0.826
13,"TALDO1 (peptide sequence: LLGELLQDNAK, peptide start residue: 259) (UniProt P37837)",0.23
14,"EPHX2 (peptide sequence: GPLNWYR, peptide start residue: 461) (UniProt P34913)",-0.258
15,"S100A11 (peptide sequence: DGYNYTLSK, peptide start residue: 28) (UniProt P31949)",-0.0594
16,"SOX6 (peptide sequence: SSIPSPIGGSLGR, peptide start residue: 462) (UniProt P35712)",0.2
17,"ARL3 (peptide sequence: LNVWDIGGQRK, peptide start residue: 63) (UniProt P36405)",0.163
18,"SFN (peptide sequence: VLSSIEQK, peptide start residue: 61) (UniProt P31947)",-0.133
19,"CTH (peptide sequence: VIYPGLPSHPQHELVKR, peptide start residue: 289) (UniProt P32929)",0.399
20,"VHL (peptide sequence: SLYEDLEDHPNVQKDLER, peptide start residue: 183) (UniProt P40337)",-0.424
21,"ANP32A (peptide sequence: KREPEDEGEDDD, peptide start residue: 238) (UniProt P39687)",-0.21
22,"RPL9 (peptide sequence: TVIVKGPR, peptide start residue: 24) (UniProt P32969)",0.252
23,"UniProt P41227 (peptide sequence: DLSEVSETTESTDVK, peptide start residue: 211)",-0.52
24,"SRP14 (peptide sequence: EVNKFQMAYSNLLR, peptide start residue: 75) (UniProt P37108)",0.294
25,"LRPAP1 (peptide sequence: HTELKEK, peptide start residue: 221) (UniProt P30533)",-0.779
26,"PTPN9 (peptide sequence: QGIYEEYEDIRR, peptide start residue: 301) (UniProt P43378)",-0.199
27,"PHB (peptide sequence: VLPSITTEILK, peptide start residue: 118) (UniProt P35232)",-0.128
28,"CSTF2 (peptide sequence: GYLGPPHQGPPMHHVPGHESR, peptide start residue: 345) (UniProt P33240)",-0.126

# 8 consecutive entries already listed:
row,Target,log2 fold change
6,"UniProt P42356 (peptide sequence: ITNVSAIIKPYPK, peptide start residue: 1741)",-0.416
7,"MTOR (peptide sequence: HCADHFLNSEHKEIR, peptide start residue: 605) (UniProt P42345)",-0.306
8,"ACAA2 (peptide sequence: TNVNGGAIALGHPLGGSGSR, peptide start residue: 341) (UniProt P42765)",-0.289
9,"UniProt P41229 (peptide sequence: ARQALASEDVTALLGR, peptide start residue: 1292)",0.328
10,"PSMC2 (peptide sequence: IATEKDFLEAVNK, peptide start residue: 403) (UniProt P35998)",0.312
11,"MYH11 (peptide sequence: NTDQASMPDNTAAQK, peptide start residue: 359) (UniProt P35749)",-0.206
12,"CORO1A (peptide sequence: RLDRLEETVQAK, peptide start residue: 450) (UniProt P31146)",0.826
13,"TALDO1 (peptide sequence: LLGELLQDNAK, peptide start residue: 259) (UniProt P37837)",0.23
